The experiment concerns the target GFP-tagged p55 (GFP-p55), bait (Drosophila) (UniProt Q24572). In words: affinity purification with mass spectrometry; GFP-trap resin capture of GFP-p55 from nuclear extract of Drosophila S2 Schneider cells; control pull-down with GFP only; label-free quantitative MS.

Protein sequences, listed by entry. Tags and fused reporters are not part of them.
UniProt Q24572: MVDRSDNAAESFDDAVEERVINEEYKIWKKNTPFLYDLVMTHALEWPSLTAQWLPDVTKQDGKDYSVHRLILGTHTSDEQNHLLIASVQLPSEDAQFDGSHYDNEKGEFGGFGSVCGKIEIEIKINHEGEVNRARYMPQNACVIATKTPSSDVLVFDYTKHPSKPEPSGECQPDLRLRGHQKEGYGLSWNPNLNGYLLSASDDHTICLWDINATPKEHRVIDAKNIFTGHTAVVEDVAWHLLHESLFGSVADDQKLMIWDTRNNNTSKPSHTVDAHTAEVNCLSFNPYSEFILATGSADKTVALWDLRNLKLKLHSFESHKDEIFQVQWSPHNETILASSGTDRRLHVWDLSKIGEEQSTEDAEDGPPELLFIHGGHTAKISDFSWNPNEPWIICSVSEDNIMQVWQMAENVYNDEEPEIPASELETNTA
UniProt O97159: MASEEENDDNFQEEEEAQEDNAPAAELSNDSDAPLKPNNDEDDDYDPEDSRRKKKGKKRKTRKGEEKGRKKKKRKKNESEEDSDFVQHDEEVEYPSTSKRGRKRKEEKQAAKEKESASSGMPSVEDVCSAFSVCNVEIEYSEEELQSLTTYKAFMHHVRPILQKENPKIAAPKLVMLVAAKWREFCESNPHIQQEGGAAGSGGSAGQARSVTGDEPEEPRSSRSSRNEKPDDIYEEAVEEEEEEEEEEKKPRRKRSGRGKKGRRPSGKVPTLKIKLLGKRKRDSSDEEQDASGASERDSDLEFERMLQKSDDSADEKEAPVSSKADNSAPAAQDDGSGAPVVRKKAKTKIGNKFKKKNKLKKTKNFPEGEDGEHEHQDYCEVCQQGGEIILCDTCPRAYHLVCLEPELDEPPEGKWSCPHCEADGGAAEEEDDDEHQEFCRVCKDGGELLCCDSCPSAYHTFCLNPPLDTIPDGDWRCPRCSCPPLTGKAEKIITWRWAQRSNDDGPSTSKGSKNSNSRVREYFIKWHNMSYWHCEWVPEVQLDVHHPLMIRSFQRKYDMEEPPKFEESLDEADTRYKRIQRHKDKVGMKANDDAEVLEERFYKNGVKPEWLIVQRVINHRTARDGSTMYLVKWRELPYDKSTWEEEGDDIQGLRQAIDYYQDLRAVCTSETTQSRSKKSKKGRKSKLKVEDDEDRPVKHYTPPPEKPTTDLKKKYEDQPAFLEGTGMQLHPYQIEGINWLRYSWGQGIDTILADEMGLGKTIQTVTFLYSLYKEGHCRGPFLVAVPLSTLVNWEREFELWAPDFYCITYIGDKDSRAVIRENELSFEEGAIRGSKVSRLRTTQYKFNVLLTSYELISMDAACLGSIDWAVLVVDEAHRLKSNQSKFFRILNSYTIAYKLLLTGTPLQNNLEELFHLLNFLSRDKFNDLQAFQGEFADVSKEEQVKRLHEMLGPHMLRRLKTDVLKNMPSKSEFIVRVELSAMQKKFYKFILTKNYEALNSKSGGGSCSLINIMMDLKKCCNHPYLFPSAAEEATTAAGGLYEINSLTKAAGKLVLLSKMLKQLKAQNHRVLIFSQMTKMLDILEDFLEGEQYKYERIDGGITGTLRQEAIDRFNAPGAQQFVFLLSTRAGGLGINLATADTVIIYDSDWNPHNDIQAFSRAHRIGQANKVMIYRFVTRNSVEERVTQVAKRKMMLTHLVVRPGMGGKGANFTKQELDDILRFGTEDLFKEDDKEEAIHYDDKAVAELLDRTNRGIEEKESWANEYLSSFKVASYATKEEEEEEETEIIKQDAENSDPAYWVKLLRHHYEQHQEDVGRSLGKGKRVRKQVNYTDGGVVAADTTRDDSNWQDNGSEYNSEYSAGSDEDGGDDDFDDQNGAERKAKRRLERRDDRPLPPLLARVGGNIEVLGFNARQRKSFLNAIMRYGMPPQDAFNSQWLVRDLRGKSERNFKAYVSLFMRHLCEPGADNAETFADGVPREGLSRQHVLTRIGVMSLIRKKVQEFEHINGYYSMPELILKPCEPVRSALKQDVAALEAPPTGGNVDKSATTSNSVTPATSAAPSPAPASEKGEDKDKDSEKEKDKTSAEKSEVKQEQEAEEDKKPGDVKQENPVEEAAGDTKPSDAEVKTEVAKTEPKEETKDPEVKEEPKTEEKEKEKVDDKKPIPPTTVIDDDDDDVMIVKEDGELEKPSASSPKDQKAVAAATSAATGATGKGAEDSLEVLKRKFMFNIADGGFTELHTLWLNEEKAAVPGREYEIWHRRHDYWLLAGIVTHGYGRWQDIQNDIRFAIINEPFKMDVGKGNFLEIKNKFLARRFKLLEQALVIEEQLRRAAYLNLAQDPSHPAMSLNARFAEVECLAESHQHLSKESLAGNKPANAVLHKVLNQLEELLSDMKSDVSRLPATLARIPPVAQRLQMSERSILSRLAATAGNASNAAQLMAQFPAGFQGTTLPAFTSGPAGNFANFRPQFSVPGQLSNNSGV
UniProt Q94517: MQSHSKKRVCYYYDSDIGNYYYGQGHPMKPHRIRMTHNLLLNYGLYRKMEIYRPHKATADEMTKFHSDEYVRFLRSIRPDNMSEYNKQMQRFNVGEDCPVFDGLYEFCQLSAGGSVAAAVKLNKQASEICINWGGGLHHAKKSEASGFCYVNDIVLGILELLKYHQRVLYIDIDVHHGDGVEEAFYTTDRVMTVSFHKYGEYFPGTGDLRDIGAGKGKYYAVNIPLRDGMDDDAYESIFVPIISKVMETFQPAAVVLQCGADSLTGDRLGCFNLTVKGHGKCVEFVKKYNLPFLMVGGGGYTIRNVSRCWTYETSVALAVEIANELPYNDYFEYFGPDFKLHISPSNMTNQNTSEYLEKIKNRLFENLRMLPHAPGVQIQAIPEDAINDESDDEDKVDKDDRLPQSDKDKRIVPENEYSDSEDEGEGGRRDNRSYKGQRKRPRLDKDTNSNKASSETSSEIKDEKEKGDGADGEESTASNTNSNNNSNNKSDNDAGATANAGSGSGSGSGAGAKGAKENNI

No constants are given. Whether binding was seen depends on the method and setting. In cells and extracts the contact can be indirect. These calls come from enrichment with a bait or labelling near it, and not all partners need be listed.

On to “CHD4 (Drosophila Mi-2, endogenous) (from UniProt O97159 1-1982) (enzyme)”, for which the binding result is recorded as “binds”.
As for “Rpd3 (endogenous) (from UniProt Q94517 1-521) (enzyme)”, the binding result was “binds”.
